Results reported in US20100184668A1.

Experiments:
[1] = target: GST-CD36 fusion protein spanning amino acids 5-143 of CD36; experiment: GST pull-down on glutathione sepharose beads from conditioned medium, Western blot
[2] = target: GST-CD36 fusion protein spanning amino acids 5-143 of CD36; experiment: GST pull-down, Western blot (FIG. 5C)
[3] = target: GST-CD36 fusion protein spanning amino acids 5-143 of CD36; experiment: GST pull-down (FIGS. 5A-5C)

Measured: binding

B1: Vasculostatin 120 (Vstat120), myc/his-tagged, secreted into conditioned medium (protein, not shown: small tags and cut ends)
chain: GADAGPGPEPCATLVQGKFFGYFSAAAVFPANASRCSWTLRNPDPRRYTLYMKVAKAPVPCSGPGRVRTYQFDSFLESTRTYLGVESFDEVLRLCDPSAPLAFLQASKQFLQMRRQQPPQHDGLRPRAGPPGPTDDFSVEYLVVGNRNPSRAACQMLCRWLDACLAGSRSSHPCGIMQTPCACLGGEAGGPAAGPLAPRGDVCLRDAVAGGPENCLTSLTQDRGGHGATGGWKLWSLWGECTRDCGGGLQTRTRTCLPAPGVEGGGCEGVLEEGRQCNREACGPAGRTSSRSQSLRSTDARRREELGDELQQFGFPAPQTGDPAAEEWSPWSVCSSTCGEGWQTRTRFCVSSSYSTQCSGPLREQRLCNNSAVCPVHGAWDEWSPWSLCSSTCGRGFRDRTRTCRPPQFGGNPCEGPEKQTKFCNIALCPGRAVDGNWNEWSSWSACSASCSQGRQQRTRECNGPSYGGAECQGHWVETRDCFLQQCPVDGKWQAWASWGSCSVTCGAGSQRRERVCSGPFFGGAACQGPQDEYRQCGTQRCPEPHEICDEDNFGAVIWKETPAGEVAAVRCPRNATGLILRRCELDEEGIAYWEPPTYIRCVSIDYRNIQMMTREHLAKAQRGLPGEGVSEVIQTLVEISQDGTSYSGDLLSTIDVLRNMTEIFRRAYYSPTPGDVQNFVQILSNLLAEENRDKWEEAQLAGPNAKELFRLVEDFVDVIGFRMKDLRDAYQVTDNLVLSIHKLPASGATDISFPMKGWRATGDWAKVPEDRVTVSKSVFSTGLTEADEASVFVVGTVLYRNLGSFLALQRNTTVLNSKVISVTVKPPPRSLRTPLEIEFAHMYNGTTNQTCILWDETDVPSSSAPPQLGPWSWRGCRTVPLDALRTRCLCDRL
binds: [1] | [2] | [3]

These are yes or no findings as the source states them, for the method shown. In cells and extracts the contact can be indirect. A result given as binding can be weak or reduced; the word gives no strength. Tags and fused reporters may be left off the sequences shown.
